For three molecules, binding results are on record in publication doi:10.1101/2020.10.25.354514.

By UniProt entry, the sequences of proteins in these tests, tags left out. Residues count along the entry.
UniProt Q9RBS2: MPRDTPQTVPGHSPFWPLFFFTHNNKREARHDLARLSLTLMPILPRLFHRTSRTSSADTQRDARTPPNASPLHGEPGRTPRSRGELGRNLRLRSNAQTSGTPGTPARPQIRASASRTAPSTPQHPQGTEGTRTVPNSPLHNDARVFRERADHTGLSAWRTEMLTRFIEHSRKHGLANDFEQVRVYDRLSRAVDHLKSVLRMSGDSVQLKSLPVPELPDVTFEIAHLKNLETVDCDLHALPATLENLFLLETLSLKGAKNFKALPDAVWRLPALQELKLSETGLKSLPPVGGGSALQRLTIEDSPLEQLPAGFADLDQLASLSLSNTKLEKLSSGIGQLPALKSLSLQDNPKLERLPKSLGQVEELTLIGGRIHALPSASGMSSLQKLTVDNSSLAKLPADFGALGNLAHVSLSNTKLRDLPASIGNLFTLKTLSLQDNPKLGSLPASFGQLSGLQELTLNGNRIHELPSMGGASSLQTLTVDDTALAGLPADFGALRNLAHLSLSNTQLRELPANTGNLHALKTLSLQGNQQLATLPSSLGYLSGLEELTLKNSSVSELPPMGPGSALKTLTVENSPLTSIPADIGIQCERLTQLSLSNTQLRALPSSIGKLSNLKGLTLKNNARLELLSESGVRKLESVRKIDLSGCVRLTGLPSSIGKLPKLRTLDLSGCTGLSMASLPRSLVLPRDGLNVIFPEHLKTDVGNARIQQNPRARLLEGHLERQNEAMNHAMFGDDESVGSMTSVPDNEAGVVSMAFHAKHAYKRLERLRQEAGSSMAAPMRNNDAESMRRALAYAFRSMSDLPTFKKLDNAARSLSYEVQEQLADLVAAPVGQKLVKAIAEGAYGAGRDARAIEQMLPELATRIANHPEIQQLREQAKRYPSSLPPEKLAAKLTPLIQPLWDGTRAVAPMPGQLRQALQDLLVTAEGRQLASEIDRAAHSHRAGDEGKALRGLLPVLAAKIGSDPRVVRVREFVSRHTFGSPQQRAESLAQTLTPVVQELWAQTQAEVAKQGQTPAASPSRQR
UniProt Q9FL28, residues 24-1173: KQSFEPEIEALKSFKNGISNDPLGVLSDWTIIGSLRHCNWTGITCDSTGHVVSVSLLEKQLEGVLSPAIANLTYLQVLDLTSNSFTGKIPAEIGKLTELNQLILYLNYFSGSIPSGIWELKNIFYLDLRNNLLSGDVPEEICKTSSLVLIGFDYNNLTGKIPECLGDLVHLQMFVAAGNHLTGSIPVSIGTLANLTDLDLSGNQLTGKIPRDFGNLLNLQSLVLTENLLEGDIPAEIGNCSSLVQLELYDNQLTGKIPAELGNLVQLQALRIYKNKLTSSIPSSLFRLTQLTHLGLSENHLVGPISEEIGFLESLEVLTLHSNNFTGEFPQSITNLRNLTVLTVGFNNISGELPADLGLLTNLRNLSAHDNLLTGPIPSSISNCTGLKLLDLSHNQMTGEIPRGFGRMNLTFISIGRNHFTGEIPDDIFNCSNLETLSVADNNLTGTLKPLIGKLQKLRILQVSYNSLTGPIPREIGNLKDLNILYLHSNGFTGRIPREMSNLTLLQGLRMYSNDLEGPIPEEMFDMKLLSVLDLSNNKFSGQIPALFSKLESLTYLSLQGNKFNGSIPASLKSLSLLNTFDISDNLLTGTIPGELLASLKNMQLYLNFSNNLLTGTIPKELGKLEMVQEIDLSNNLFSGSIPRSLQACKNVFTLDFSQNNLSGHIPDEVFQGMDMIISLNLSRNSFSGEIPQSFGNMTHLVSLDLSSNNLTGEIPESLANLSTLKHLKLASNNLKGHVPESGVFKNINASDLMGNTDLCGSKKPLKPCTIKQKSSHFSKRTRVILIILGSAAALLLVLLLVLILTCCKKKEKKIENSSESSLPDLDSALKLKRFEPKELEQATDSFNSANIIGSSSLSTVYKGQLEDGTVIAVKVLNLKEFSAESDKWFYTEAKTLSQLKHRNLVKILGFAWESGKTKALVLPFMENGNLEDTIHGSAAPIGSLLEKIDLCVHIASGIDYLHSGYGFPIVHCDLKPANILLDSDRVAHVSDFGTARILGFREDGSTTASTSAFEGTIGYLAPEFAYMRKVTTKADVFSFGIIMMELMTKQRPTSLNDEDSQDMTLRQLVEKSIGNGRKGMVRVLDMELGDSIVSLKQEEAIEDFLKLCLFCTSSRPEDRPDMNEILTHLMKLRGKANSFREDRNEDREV

These are yes or no findings as the source states them, for the method shown. In cells and extracts the contact can be indirect. Some entries that bind do so weakly or less than the wild type. Sequences can lack the tags named with a protein.

The target of one experiment is T1, AtPUB4-GFP (Arabidopsis) (UniProt O22193).
T1 sequence: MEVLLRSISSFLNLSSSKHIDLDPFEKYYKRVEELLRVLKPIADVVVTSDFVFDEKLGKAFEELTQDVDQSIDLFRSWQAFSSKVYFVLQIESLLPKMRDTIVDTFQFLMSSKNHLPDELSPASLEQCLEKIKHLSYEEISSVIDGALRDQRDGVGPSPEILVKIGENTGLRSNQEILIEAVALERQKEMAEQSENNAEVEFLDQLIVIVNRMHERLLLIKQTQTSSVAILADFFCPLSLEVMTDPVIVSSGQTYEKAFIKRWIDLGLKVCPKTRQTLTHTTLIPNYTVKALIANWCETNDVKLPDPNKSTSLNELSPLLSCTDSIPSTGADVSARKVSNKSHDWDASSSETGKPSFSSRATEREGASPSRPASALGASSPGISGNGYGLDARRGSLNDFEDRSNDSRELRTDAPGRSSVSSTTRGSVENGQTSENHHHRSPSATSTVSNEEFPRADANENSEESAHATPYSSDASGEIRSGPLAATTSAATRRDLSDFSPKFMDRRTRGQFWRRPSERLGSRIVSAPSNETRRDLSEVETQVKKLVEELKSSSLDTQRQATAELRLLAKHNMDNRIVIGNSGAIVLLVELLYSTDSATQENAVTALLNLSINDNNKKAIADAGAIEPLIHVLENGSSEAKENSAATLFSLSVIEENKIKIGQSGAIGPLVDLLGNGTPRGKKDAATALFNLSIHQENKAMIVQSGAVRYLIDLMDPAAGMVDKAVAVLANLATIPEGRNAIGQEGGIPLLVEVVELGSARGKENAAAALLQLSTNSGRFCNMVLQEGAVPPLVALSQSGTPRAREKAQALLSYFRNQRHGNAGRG
Nature of the experiment: FRET or BRET. Background: BRET reads energy transfer from a luciferase to a nearby fluorophore.

Another experiment concerns the target T2, PUB4-FLAG (Arabidopsis) (UniProt O22193).
T2 sequence: T1 sequence
Nature of the experiment: co-IP.

Turning to RipAC-RFP (from UniProt Q9RBS2 1-1024), the binding entry in the experiment with AtPUB4-GFP (Arabidopsis) is listed as “binds”.

In the case of “FLS2 (from UniProt Q9FL28 24-1173) (receptor)”, in the experiment with PUB4-FLAG (Arabidopsis), the binding result is recorded as “binds”.

B1: BAK1 (receptor, UniProt Q94F62 26-615)
chain: NAEGDALSALKNSLADPNKVLQSWDATLVTPCTWFHVTCNSDNSVTRVDLGNANLSGQLVMQLGQLPNLQYLELYSNNITGTIPEQLGNLTELVSLDLYLNNLSGPIPSTLGRLKKLRFLRLNNNSLSGEIPRSLTAVLTLQVLDLSNNPLTGDIPVNGSFSLFTPISFANTKLTPLPASPPPPISPTPPSPAGSNRITGAIAGGVAAGAALLFAVPAIALAWWRRKKPQDHFFDVPAEEDPEVHLGQLKRFSLRELQVASDNFSNKNILGRGGFGKVYKGRLADGTLVAVKRLKEERTQGGELQFQTEVEMISMAVHRNLLRLRGFCMTPTERLLVYPYMANGSVASCLRERPESQPPLDWPKRQRIALGSARGLAYLHDHCDPKIIHRDVKAANILLDEEFEAVVGDFGLAKLMDYKDTHVTTAVRGTIGHIAPEYLSTGKSSEKTDVFGYGVMLLELITGQRAFDLARLANDDDVMLLDWVKGLLKEKKLEALVDVDLQGNYKDEEVEQLIQVALLCTQSSPMERPKMSEVVRMLEGDGLAERWEEWQKEEMFRQDFNYPTHHPAVSGWIIGDSTSQIENEYPSGPR
With B1, the binding result with PUB4-FLAG (Arabidopsis) was “binds”.
